# According to PubChem BioAssay AID493014 (National Center for Advancing Translational Sciences (NCATS), 2011):
# This is one part of the list. Further columns of the screen follow, without active or inactive calls. Compounds called inactive in the main read-out are mostly missing here. Potencies come from curve fits of mixed quality, noted in brackets.
# Assay: qHTS Assay to Find Inhibitors of Chronic Active B-Cell Receptor Signaling
# Details: ABC-DLBCL IkBa-CBG/CBR reporter, luminescence ratio (green luciferase fused to IkBa over red control in TMD8 lymphoma cells), 4 h
# Procedure, shortened: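 TMD8 ABC-DLBCL cells carrying doxycycline-inducible green luciferase fused to IkappaBalpha plus unfused red luciferase were exposed to compounds (up to 46 uM) for 4 hrs at 37C. Activity came from the overlap-corrected green/red luminescence ratio.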
# [1] = measured here: CBR red luminescence, cell number
# [2] = measured here: IkBa-CBG green luminescence
Compound,AC50 [1],AC50 [2]
COC(=O)c1c(N2C(=O)[C@H]3[C@@H](C2=O)[C@]2(C(=O)Nc4c(C)cc(C)cc42)N2CCC[C@@H]32)sc(C)c1C,"12.6 µM [falling, partial curve, poor fit]",–
CSCC[C@H](NC(=O)c1ccc(Cl)c([N+](=O)[O-])c1)c1nc2ccccc2[nH]1,"10.3 µM [falling, partial curve, poor fit]",–
Cc1ccc2cccc(NS(=O)(=O)c3ccccc3)c2n1,"2.82 µM [rising, partial curve, poor fit]",–
CC(NC(=O)c1ccccc1O)c1ccccc1 (configuration not stated),"23.1 µM [rising, single point]",–
CC1(C)C(c2ccccc2)=NC(c2ccc(Br)cc2)N1O (configuration not stated),"5.62 µM [rising, single point]",–
CCOC(=O)Cn1cc(Cl)cc(C(=O)Nc2ccccc2)c1=O,"0.1 µM [rising, full curve, poor fit]",–
COc1ccc(CNc2ncnc3cc(Cl)ccc23)cc1,"28.2 µM [falling, single point]",–
COc1cc2c(cc1OC)C(C)N(C(=O)c1sccc1C)CC2 (configuration not stated),"3.55 µM [rising, single point]",–
COc1cc(C(=O)/C=C/c2cccnc2)c([N+](=O)[O-])cc1OC,"9.2 µM [falling, partial curve, poor fit]",–
COc1cccc(NC(=O)c2cc3ccccc3oc2=O)c1,"3.16 µM [falling, partial curve, poor fit]",–
O=C(COC(=O)Cc1cccs1)Nc1ccc(F)c(F)c1F,"9.2 µM [rising, partial curve]",–
Nc1ccc(/C=C/C(=O)c2cccs2)cc1,"12.6 µM [falling, partial curve, poor fit]",–
O=C(CN1C(=O)CSc2ccccc21)N/N=C/c1ccco1,"17.8 µM [falling, single point]",–
C/C(=N\OCC(=O)Nc1ccccc1Br)c1cccs1,"1.12 µM [rising, full curve, poor fit]",–
CC(NC(=O)Nn1cnnc1)(C(F)(F)F)C(F)(F)F,"1.46 µM [rising, partial curve, poor fit]",–
CC(C)CCNc1nc(N)c([N+](=O)[O-])c(NCC2CCCO2)n1 (configuration not stated),"6.51 µM [rising, partial curve]",–
O=S1(=O)C=C(Sc2nnc(-c3ccccc3)o2)c2ccccc21,"1 µM [falling, full curve]",–
O=S(=O)(Nc1cccc(-c2ccc(N3CCCCCC3)nn2)c1)c1ccc(C(F)(F)F)cc1,"35.5 µM [rising, single point]",–
COc1cc(/C=N\Nc2cc(=O)n(C)c(=O)n2C)ccc1O,"29.1 µM [rising, single point]",–
COc1ccc(NC2CCCN(C(=O)c3ccc(C(C)=O)s3)C2)cc1 (configuration not stated),"20 µM [rising, single point]",–
Cc1nn(C)c(C)c1CNC(=O)Nc1cccc(Cl)c1,"28.2 µM [rising, single point]",–
N#Cc1cc([N+](=O)[O-])ccc1Oc1cccc(/C=N/NC(=O)c2cccc(Cl)c2)c1,"18.4 µM [rising, partial curve, poor fit]",–

# For reference, part of the list above.
Compound,AC50 [1],AC50 [2]
CCOC(=O)Cn1cc(Cl)cc(C(=O)Nc2ccccc2)c1=O,"0.1 µM [rising, full curve, poor fit]",–
COc1ccc(CNc2ncnc3cc(Cl)ccc23)cc1,"28.2 µM [falling, single point]",–

# Next part:

Compound,AC50 [1],AC50 [2]
Cc1cc(NCc2ccccc2Cl)n2nnnc2n1,"23.1 µM [falling, single point]",–
CC(C)c1ccc(NC(=O)CSc2nc(-c3ccccc3F)nc3nc[nH]c23)cc1,"20.6 µM [rising, single point]",–
Cc1[nH]c2ccccc2c1-c1csc(N)n1,"22.4 µM [falling, partial curve, poor fit]",–
COc1ccc(NC(=O)CN(c2ccc(C)cc2)S(=O)(=O)c2c(C)nn(C)c2C)cc1,"10 µM [falling, partial curve]",–
Cc1cccn2c(=O)c(C=C(C#N)C#N)c(N3CCN(c4cccc(Cl)c4)CC3)nc12,"35.5 µM [rising, single point]",–
O=C(NC(=S)NCc1ccccc1)c1cccnc1,"35.5 µM [rising, partial curve, poor fit]",–
CCCCNc1c(-c2ccc(OC)c(SC(C)CC)c2)nc2cc(C)ccn12 (configuration not stated),"29.1 µM [falling, single point]",–
COc1ccc(N(CC(=O)Nc2cccc(C)c2)S(=O)(=O)c2c(C)n[nH]c2C)cc1,"6.31 µM [falling, full curve, poor fit]",–
COc1cccc(OCc2cc(/C=N/Nc3ccc(C(=O)O)cc3)ccc2OC)c1,"0.282 µM [falling, full curve]",–
CNC(=O)/C(C#N)=C/c1c(F)cccc1Cl,"29.1 µM [falling, single point]",–
COc1ccc(S(=O)Cc2ccc(C(=O)NCc3cccc(OC)c3)o2)cc1 (configuration not stated),"0.708 µM [falling, full curve, poor fit]",–
COc1ccccc1C1CC(c2ccccc2)=NN1C(=O)c1ccccc1 (configuration not stated),"17.8 µM [falling, single point]",–
Cc1ccc2nc(NC(=O)COC(=O)c3ccc(Br)o3)sc2c1,"25.1 µM [falling, single point]","31.6 µM [falling, single point]"
CCOc1ccccc1C(=O)Nc1nnc(CC)s1,"8.2 µM [falling, partial curve, poor fit]",–
CCOC(=O)c1cc2n(c1/N=C/N(C)C)-c1ccccc1C2=O,"0.164 µM [rising, full curve, poor fit]",–
CCOc1ccc2c(c1)c(C(C)=O)c(C)n2-c1ccccc1,"32.6 µM [rising, single point]",–
CCc1ccc2c(c1)cc(C)c1nnc(SCC(=O)Nc3cc(OC)c(OC)cc3C(=O)O)n12,"3.16 µM [falling, single point]",–
CN1CCN(c2nc(-c3ccc(Br)cc3)nnc2-c2ccccc2)CC1,"1.58 µM [falling, full curve]",–
O=C(c1ccc(Oc2ccc(C(F)(F)F)cn2)cc1)N1CCN(c2ccccc2)CC1,"17.8 µM [falling, single point]",–
COc1ccc(N2C(=S)NC3c4cc(Cl)ccc4OC2(C)C3C(=O)N(C)C)cc1 (configuration not stated),"35.5 µM [falling, single point]",–
OC1CCN(c2c3c(nc4cc(-c5cccc(F)c5)nn24)CCCC3)CC1,"9.2 µM [falling, partial curve, poor fit]",–
CCc1nnc(SCC(=O)NC2CCCCC2)nc1CC,"0.58 µM [falling, partial curve, poor fit]",–

Compound,AC50 [1],AC50 [2]
Fc1ccc2nc(N3CCCCC3)sc2c1,"15.8 µM [rising, single point]",–
CC1CCCN(C(=O)COC(=O)COc2ccc(C#N)cc2)C1 (configuration not stated),"5.17 µM [rising, single point]",–
COC(=O)CCCCCc1ccc(C(C)=O)s1,"0.082 µM [rising, full curve, poor fit]",–
Cc1ccccc1-n1nnnc1-c1ccccc1,"12.6 µM [rising, partial curve, poor fit]",–
COc1ccc(-c2nn(-c3ccccc3)cc2/C=N/Nc2ccccn2)cc1OC,"1.64 µM [falling, full curve]",–
Nc1nc(-c2ccccc2)c(N=Nc2ccccc2Cl)s1,"29.1 µM [rising, single point]",–
O=C(N/N=C/c1ccc(N2CCOCC2)s1)c1ccccc1Cl,"12.6 µM [falling, partial curve, poor fit]",–
C#Cc1ccc([C@H]2C=C(C(=O)Nc3ccccc3)O[C@@H](OCc3ccc(CO)cc3)C2)cc1,"2.24 µM [rising, single point]",–
CCN(CC)c1ccc(/C=C(/C#N)C(=O)NCc2ccccc2)o1,"0.58 µM [rising, full curve, poor fit]",–
O=C(Nc1ccc([N+](=O)[O-])cn1)c1ccc(Br)o1,"23.1 µM [falling, single point]",–
C=C(C)CSc1nc(N)c2c3c(sc2n1)CCC3,"0.708 µM [rising, partial curve, poor fit]",–
Nc1nc(Cl)c(C=O)c(N2CCCCC2)n1,"20 µM [falling, single point]","12.6 µM [rising, partial curve, poor fit]"
O=C(O)CCC(=O)Nc1ccc(N=Nc2ccccc2)cc1,"20 µM [falling, single point]",–
C/C(=N\NC(=O)c1cccs1)C(C)(C)C,"18.4 µM [falling, partial curve]","25.9 µM [falling, single point]"
CCOc1ccccc1N1CCN(S(=O)(=O)c2cccc3nsnc23)CC1,"1.46 µM [falling, full curve, poor fit]",–
CCn1c2ccccc2c2cc(NC(=O)c3cccc(OC)c3OC)ccc21,"1.64 µM [rising, full curve]",–
Cc1ccc(NC(=O)CN2C=NS(=O)(=O)c3ccccc32)cc1,"4.47 µM [falling, full curve, poor fit]",–
Nc1nonc1-n1nnc(C(=O)N/N=C/C=C/c2ccccc2)c1CSC1=NCCS1,"10 µM [falling, partial curve, poor fit]",–
C[C@@H]1CN([C@@H](C)CO)C(=O)c2cccc(NC(=O)Nc3ccc(F)cc3)c2O[C@@H]1CN(C)Cc1ccc(Oc2ccccc2)cc1,"13 µM [falling, partial curve, poor fit]",–
Cc1ccc(NC(=O)c2ccc(=O)n(CC(=O)Nc3ccccc3)n2)cc1,"0.1 µM [rising, full curve, poor fit]",–
